Data: the supplement of paper PMC12067093, “Discovery and optimisation of a covalent ligand for TRIM25 and its application to targeted protein ubiquitination” (Chemical Science, 2025)
This is one part of the list.

By UniProt entry, the sequences of proteins in these tests, tags left out. Where a name states a change or a piece, a line headed by the entry shows the natural chain unless it says otherwise.
UniProt Q8TEP8: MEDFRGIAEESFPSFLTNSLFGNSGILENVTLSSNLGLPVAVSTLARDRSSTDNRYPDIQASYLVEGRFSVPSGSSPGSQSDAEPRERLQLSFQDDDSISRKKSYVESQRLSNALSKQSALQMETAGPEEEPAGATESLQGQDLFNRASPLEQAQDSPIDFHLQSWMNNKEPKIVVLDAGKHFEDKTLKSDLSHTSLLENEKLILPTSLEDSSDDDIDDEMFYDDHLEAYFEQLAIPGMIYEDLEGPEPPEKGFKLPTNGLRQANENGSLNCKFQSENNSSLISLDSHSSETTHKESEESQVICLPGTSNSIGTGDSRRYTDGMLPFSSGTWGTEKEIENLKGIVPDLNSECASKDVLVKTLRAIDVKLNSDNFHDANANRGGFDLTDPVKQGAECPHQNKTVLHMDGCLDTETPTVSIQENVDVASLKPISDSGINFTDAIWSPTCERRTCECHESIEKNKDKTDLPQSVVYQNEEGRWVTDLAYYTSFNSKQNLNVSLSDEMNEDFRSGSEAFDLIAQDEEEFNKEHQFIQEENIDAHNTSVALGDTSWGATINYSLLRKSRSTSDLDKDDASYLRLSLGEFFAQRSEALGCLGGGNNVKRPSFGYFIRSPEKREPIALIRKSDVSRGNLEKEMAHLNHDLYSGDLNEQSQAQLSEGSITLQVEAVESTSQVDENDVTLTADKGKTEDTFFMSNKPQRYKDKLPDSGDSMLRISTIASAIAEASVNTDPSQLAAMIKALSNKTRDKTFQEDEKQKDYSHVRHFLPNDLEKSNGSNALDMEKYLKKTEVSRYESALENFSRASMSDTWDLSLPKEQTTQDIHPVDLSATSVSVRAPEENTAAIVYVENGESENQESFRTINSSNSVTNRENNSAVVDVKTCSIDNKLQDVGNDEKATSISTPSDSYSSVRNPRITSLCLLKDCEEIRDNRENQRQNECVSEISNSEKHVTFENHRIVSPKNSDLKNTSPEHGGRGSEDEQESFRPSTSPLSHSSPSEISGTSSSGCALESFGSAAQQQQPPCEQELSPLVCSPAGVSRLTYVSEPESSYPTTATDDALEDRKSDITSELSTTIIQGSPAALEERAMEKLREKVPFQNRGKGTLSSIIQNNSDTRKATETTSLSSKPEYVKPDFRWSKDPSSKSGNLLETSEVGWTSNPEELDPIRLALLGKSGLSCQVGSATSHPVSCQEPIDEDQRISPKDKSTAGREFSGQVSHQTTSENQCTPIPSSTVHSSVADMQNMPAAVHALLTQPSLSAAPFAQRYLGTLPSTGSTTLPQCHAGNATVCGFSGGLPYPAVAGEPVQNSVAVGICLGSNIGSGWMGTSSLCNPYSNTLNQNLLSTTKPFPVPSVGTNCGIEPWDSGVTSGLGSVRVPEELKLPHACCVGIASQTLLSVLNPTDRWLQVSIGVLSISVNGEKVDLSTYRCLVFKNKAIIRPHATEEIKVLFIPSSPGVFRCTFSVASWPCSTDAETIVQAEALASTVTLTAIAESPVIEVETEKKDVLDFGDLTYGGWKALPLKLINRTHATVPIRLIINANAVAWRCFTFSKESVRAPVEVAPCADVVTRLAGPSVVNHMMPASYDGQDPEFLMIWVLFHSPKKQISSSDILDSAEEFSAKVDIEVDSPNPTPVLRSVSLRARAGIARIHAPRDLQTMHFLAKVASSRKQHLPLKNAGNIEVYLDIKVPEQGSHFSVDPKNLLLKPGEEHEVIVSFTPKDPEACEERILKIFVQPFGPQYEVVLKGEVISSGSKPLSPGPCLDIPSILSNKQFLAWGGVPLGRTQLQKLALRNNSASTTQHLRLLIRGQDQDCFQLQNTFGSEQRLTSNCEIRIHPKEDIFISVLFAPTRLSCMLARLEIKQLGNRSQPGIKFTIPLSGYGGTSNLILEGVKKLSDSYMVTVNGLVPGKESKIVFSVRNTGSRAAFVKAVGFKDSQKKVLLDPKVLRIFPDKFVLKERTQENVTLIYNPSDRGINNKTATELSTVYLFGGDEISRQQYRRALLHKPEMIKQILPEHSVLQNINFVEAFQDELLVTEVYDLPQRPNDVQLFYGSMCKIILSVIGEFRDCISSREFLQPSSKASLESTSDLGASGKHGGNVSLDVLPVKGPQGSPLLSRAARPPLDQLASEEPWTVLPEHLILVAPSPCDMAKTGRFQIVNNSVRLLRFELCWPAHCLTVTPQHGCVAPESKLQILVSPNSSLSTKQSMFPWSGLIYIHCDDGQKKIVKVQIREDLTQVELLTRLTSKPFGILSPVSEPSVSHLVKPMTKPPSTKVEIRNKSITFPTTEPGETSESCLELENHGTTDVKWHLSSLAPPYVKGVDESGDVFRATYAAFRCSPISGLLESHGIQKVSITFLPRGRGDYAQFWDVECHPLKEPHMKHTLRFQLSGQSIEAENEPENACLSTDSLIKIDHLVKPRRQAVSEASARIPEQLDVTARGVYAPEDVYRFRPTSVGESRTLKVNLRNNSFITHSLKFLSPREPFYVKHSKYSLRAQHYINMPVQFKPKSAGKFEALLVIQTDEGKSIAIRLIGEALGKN
UniProt P42773: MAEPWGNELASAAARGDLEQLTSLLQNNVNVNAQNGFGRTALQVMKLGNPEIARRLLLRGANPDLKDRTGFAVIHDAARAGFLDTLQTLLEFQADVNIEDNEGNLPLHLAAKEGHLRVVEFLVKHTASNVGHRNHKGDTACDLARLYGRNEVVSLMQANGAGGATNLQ
UniProt P13987: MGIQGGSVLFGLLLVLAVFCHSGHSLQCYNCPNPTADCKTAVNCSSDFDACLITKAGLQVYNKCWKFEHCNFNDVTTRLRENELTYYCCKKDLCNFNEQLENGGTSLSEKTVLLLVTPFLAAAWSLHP
UniProt P50990: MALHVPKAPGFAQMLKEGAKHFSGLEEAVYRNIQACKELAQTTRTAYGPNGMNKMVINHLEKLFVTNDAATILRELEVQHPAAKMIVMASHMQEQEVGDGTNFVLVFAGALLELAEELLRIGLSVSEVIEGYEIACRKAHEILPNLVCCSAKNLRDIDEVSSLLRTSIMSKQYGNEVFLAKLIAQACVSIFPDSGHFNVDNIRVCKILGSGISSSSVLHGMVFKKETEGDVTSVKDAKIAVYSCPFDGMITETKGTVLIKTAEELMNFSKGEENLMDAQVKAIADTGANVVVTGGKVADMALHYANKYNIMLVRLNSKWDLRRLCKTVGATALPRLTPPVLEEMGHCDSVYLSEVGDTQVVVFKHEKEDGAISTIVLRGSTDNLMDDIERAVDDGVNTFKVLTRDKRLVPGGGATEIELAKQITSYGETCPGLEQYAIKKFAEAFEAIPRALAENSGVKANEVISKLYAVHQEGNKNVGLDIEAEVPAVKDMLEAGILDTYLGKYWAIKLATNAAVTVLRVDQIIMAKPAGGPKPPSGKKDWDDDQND
UniProt P28907, whole entry, looked up: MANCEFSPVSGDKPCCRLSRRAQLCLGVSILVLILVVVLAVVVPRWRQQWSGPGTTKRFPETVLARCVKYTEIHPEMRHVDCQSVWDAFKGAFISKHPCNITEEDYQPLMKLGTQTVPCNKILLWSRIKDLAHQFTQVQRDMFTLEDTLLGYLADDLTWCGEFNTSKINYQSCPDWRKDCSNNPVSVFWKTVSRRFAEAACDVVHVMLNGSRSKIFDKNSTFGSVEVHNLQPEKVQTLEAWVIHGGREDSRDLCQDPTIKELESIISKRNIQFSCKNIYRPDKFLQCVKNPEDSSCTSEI
UniProt Q92674: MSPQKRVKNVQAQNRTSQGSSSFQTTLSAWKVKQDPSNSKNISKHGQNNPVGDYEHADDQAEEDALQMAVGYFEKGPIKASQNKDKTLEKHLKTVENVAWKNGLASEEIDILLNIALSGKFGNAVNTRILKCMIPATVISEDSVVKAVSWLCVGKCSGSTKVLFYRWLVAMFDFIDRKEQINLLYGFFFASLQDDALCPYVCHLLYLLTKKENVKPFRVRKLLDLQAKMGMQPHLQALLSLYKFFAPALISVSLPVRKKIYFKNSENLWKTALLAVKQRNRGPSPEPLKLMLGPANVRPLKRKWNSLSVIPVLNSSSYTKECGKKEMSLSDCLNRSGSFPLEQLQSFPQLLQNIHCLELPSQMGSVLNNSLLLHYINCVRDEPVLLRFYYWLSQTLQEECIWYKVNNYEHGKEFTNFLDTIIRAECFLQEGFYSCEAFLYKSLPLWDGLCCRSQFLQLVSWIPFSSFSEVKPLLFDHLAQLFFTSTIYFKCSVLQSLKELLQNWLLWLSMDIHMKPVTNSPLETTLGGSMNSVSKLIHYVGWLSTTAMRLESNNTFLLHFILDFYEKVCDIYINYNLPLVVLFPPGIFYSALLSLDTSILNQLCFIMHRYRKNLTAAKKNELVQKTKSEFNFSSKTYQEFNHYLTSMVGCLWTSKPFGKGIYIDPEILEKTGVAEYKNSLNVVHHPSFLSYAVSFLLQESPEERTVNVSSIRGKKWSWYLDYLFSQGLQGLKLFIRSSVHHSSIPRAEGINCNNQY
UniProt Q53EZ4: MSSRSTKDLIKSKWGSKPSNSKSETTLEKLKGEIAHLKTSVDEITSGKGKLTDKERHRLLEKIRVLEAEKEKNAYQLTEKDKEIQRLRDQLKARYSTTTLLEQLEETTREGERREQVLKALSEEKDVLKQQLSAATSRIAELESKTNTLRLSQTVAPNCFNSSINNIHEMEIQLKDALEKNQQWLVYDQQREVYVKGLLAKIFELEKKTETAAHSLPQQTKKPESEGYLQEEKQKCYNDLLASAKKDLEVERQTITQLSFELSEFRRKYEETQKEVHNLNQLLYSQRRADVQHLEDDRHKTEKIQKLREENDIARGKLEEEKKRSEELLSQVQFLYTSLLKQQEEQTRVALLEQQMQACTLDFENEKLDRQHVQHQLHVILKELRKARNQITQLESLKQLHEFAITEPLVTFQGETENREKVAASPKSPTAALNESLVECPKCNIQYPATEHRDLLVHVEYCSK
UniProt Q99832: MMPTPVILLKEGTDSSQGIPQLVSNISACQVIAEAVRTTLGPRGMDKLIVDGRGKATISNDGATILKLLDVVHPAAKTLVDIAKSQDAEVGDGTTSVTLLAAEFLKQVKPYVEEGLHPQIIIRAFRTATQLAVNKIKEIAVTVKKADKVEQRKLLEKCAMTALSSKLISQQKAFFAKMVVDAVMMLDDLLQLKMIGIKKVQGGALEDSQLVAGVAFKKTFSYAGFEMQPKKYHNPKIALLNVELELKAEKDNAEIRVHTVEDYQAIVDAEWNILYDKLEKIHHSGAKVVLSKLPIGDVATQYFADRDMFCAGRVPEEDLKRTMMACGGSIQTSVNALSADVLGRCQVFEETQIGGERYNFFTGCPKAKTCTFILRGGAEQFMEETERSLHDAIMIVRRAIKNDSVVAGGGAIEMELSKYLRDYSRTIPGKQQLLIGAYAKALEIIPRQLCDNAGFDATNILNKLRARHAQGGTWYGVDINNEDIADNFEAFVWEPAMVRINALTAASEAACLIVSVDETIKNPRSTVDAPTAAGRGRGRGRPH
UniProt P30260, whole entry, looked up: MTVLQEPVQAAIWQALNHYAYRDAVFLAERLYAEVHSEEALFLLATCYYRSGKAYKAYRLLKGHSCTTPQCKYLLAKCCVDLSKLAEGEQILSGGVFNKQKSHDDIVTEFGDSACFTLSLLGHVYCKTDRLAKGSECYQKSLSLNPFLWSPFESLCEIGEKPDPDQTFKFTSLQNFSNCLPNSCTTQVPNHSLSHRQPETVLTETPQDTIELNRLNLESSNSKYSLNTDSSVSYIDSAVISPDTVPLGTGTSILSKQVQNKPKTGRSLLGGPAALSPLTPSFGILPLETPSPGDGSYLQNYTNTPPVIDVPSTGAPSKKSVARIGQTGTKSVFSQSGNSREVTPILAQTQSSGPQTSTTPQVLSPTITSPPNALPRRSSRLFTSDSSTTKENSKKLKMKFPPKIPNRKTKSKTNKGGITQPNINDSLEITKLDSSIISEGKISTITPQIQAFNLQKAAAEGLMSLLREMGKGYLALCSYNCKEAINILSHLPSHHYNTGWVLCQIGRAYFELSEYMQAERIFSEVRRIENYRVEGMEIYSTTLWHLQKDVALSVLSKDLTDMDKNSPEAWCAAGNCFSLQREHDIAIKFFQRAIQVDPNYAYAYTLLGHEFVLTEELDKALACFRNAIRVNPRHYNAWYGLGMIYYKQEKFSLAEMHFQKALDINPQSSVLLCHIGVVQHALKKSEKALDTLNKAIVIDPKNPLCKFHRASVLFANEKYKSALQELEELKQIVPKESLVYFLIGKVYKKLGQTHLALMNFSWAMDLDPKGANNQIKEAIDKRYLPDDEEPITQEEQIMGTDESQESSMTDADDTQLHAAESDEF

compound: CC1Cc2ccccc2N1C(=O)C1CCCN(C1)C(=O)CCl (mixture of isomers) [TRIM25 ligand 11 (diastereomer mixture)]; assay: probe-labelled cysteine peptide fold change vs DMSO (competition) (log2 fold change); higher = less target engagement (more negative = stronger competition); conditions: 10 µM; THP-1; incubation time: 4 h
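Also: competitive chemoproteomic profiling in live THP-1 cells with an iodoacetamide desthiobiotin (IA-DTB) probe, comparing probe-labelled peptide intensities in compound-treated cells against DMSO-treated controls.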

| Target | probe-labelled cysteine peptide fold change |
| --- | --- |
| CEP350_Q5VT06_2910_RVTQQPCETLLAVPHTAEEVEILVHNAAEELWK (UniProt Q5VT06) | 0.158 |
| CDC16_Q13042_455_AIGNEVTVDKWEPLLNNLGHVCR (UniProt Q13042) | -0.12 |
| CEP192_Q8TEP8_352_GIVPDLNSECASK (UniProt Q8TEP8) | 0.00919 |
| CEP250_Q9BV73_110_CESLAEVNTQLR (UniProt Q9BV73) | -0.0431 |
| CDC42BPA_Q5VT25_121_AETACFR (UniProt Q5VT25) | 0.369 |
| CDKN2C_P42773_141_GDTACDLAR (UniProt P42773) | 0.0352 |
| CD59_P13987_70_FEHCNFNDVTTR (UniProt P13987) | -0.0723 |
| CCT8_P50990_36_NIQACK (UniProt P50990) | 0.102 |
| CD38_P28907_82_HVDCQSVWDAFK (UniProt P28907) | 0.0635 |
| CENPI_Q92674_332_EMSLSDCLNR (UniProt Q92674) | -0.0185 |
| CEP55_Q53EZ4_443_CNIQYPATEHR (UniProt Q53EZ4) | -0.039 |
| CEP192_Q8TEP8_396_QGAECPHQNK (UniProt Q8TEP8) | -0.0896 |
| CENPF_P49454_1947_LEYFSCDHQELLQR (UniProt P49454) | 0.0929 |
| CDC45_O75419_31_VLLFVASDVDALCACK (UniProt O75419) | 0.219 |
| CCT7_Q99832_326_RTMMACGGSIQTSVNALSADVLGR (UniProt Q99832) | 0.112 |
| CDC27_P30260_179+184_FTSLQNFSNCLPNSCTTQVPNHSLSHR (UniProt P30260) | -0.0465 |

Shown bar-delimited: entries from further up.
Target | probe-labelled cysteine peptide fold change
CENPI_Q92674_332_EMSLSDCLNR (UniProt Q92674) | -0.0185
CEP55_Q53EZ4_443_CNIQYPATEHR (UniProt Q53EZ4) | -0.039
CEP192_Q8TEP8_396_QGAECPHQNK (UniProt Q8TEP8) | -0.0896
